Our source for the AC50 values is PubChem BioAssay AID1487 (National Center for Advancing Translational Sciences (NCATS), 2009).

The structures appear in SMILES notation. This is one part of the list. Further columns of the screen follow, without active or inactive calls. Most of these compounds were active or inconclusive in the main read-out, so they are no random draw. Words in brackets tell the shape of the fitted curve; partial curves, single points and poor fits give uncertain potencies.

This assay can be described thus: qHTS Assay for Modulators of Lamin A Splicing. The note with it: HeLa LMNA splicing GFP/RFP minigene ratio, 48 h. The procedure, abridged: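 S3 HeLa cells stably expressing lamin A-EGFP splicing minigene plus DsRed2, 600 cells/well, 48 h compound exposure at 37C. Laser-scanning cytometry; analysed as GFP (500-530 nm)/RFP (575-640 nm) total intensity ratio; 0.5% DMSO vehicle.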
(In general: qHTS replaces the single test concentration by a dilution series.)

Setting [1] is: measured here: RFP viability control channel.
[2] abbreviates: measured here: GFP splicing reporter channel.

For the compound `NS(=O)(=O)c1ccc(NC(=O)c2cc(Cl)ccc2Cl)cc1`, under setting [1], the half-maximal activity concentration (AC50) was 0.501 µM [rising, partial curve]. Turning to `CCCN1C(=O)/C(=C2/C=Cc3ccccc3N2CC)SC1=S`, the concentration at half-maximal activity (AC50) runs as follows: under setting [2], 0.708 µM [rising, partial curve, poor fit]; under setting [1], 1 µM [rising, single point]. As for `Cc1cc(C)c(O)c(N)c1`, under setting [1], the AC50 is 35.5 µM [rising, single point]. For `Cc1ccc(SCCCCN2CCNCC2)cc1`, the half-maximal activity concentration (AC50) under setting [2] is 35.5 µM [rising, single point]. Regarding `Cc1[nH]c2ccccc2c1/C=N/NC(=O)C1CC1(c1ccccc1)c1ccccc1` (configuration not stated), the AC50 was 12.6 µM [rising, single point] under setting [2] and 20 µM [rising, single point] under setting [1]. For `COc1ccc(N2CCN(C(=O)c3oc4ccccc4c3C)CC2)cc1`, the AC50 runs as follows: under setting [2], 0.794 µM [rising, single point]; under setting [1], 0.0562 µM [rising, full curve, poor fit]. Take `CCOC(=O)c1[nH]c(C)c(C(=O)Nc2ccc(C)c(F)c2)c1C`: under setting [1], the AC50 is 11.2 µM [rising, partial curve]. For the compound `CC1=CCC(C(C)(C)O)CC1` (configuration not stated), the AC50 runs as follows: under setting [2], 0.0562 µM [falling, full curve, poor fit]; under setting [1], 0.00355 µM [falling, full curve, poor fit]. On to `CSc1nc(Cl)c(Cc2ccc(OC(C)C)cc2)c(N2CCOCC2)n1`, for which the half-maximal activity concentration (AC50) under setting [2] is 11.2 µM [falling, single point]. Take `COc1ccc(C(=O)/C=C\c2ccc(NC(=O)c3cccs3)cc2)cc1`: the AC50 was 14.1 µM [falling, partial curve] under setting [2] and 12.6 µM [falling, partial curve] under setting [1].

Turning to `COc1ccc(NC(=O)C(C(C)C)N2Cc3ccccc3C2=O)cc1` (configuration not stated), under setting [1], the half-maximal activity concentration (AC50) is 11.2 µM [rising, single point]. Turning to `CCCCc1nn2c(=O)cc(COC(=O)c3ccccc3C)nc2s1`, the AC50 is 0.00447 µM [falling, full curve, poor fit] under setting [2] and 0.00501 µM [falling, full curve, poor fit] under setting [1]. Consider `O=C(CSc1nnnn1-c1ccc(Cl)cc1)Nc1cccnc1Cl`, for which the AC50 was 14.1 µM [rising, single point] under setting [2] and 22.4 µM [rising, single point] under setting [1].

Turning to `CC(=O)Nc1nc2c(s1)C(=O)NCCC2`, the concentration at half-maximal activity (AC50) under setting [2] is 1.58 µM [rising, partial curve]. As for `COc1ccc(C(=O)C(C)Oc2cccc(NC(=O)c3cccc([N+](=O)[O-])c3)c2)cc1` (configuration not stated), the AC50 under setting [2] is 20 µM [rising, single point] and the AC50 under setting [1] was 28.2 µM [rising, single point]. Turning to `CCOc1ccc(S(=O)(=O)NCc2ccc(OC)cc2)c2cccnc12`, the AC50 by setting is: under setting [2], 25.1 µM [rising, single point]; under setting [1], 31.6 µM [rising, single point].

As to `CC(C)CCC[C@@H](C)[C@H]1CC[C@H]2[C@@H]3CC=C4C[C@@H](O)CC[C@]4(C)[C@H]3CC[C@]12C`, the AC50 runs as follows: under setting [2], 2.82 µM [falling, full curve]; under setting [1], 6.31 µM [falling, partial curve, poor fit]. On to `Cc1cccc(N2CCN(C(=O)c3cc4ccc5cccnc5c4[nH]3)CC2C)c1` (configuration not stated), for which the AC50 under setting [1] is 0.224 µM [rising, partial curve, poor fit].

For `Cc1cccc(NS(=O)(=O)c2cc(C(=O)OC(C)C(=O)NCc3ccc4c(c3)OCO4)ccc2C)c1` (configuration not stated), under setting [1], the concentration at half-maximal activity (AC50) is 14.1 µM [rising, single point]. Turning to `CCCCCCn1ccc(=N)cc1`, the AC50 reads like this: under setting [2], 8.91 µM [rising, partial curve]; under setting [1], 7.08 µM [rising, full curve]. `Cc1ccc(NC(=O)C(NC2CCCc3ccccc32)c2ccccc2)cc1Cl` (configuration not stated): under setting [1], the AC50 was 22.4 µM [rising, single point]. With `CCOc1ccc(-c2nc(C#N)c(N3CCCCCC3)o2)cc1`, the AC50 is, setting by setting: under setting [2], 35.5 µM [rising, single point]; under setting [1], 22.4 µM [rising, partial curve, poor fit]. Turning to `COc1ccc(CNC(=O)c2ccc(Cn3nc(C)c([N+](=O)[O-])c3C)o2)cc1`, the half-maximal activity concentration (AC50) is, setting by setting: under setting [2], 5.62 µM [falling, single point]; under setting [1], 3.16 µM [falling, single point]. Turning to `CC(C)Oc1cc(NC(=O)CS(=O)CC(=O)Nc2cccc(C(F)(F)F)c2)c(Cl)cc1Cl` (configuration not stated), the concentration at half-maximal activity (AC50) is, setting by setting: under setting [2], 35.5 µM [falling, single point]; under setting [1], 31.6 µM [falling, single point]. Take `Cc1ccccc1NC(=O)N1CCN(C/C=C/c2ccccc2)CC1`: under setting [1], the half-maximal activity concentration (AC50) is 3.55 µM [rising, partial curve, poor fit]. On the same count and under the same terms, with `O=C(/C=C/c1ccccc1)OCc1ccccc1` the figure was 0.0355 µM [falling, full curve, poor fit]; with `COc1ccc(CC(=O)NCc2nn(-c3ccccc3)nc2C)cc1OC`, 0.00398 µM [falling, full curve, poor fit]. Take `CCc1ccccc1N(CC)C(=O)C1CCN(c2ncnc3c2nc2n3CCCCC2)CC1`: the concentration at half-maximal activity (AC50) runs as follows: under setting [2], 35.5 µM [rising, partial curve]; under setting [1], 35.5 µM [rising, partial curve]. As to `CCCCCCC(=O)N/N=C1\CCCc2ccccc21`, the concentration at half-maximal activity (AC50) under setting [1] is 35.5 µM [rising, single point]. Regarding `O=C(CCC(=O)N1CCN(S(=O)(=O)c2ccc(Cl)cc2)CC1)Nc1ccc(Cl)cc1Cl`, the AC50 was 10 µM [rising, partial curve] under setting [2] and 11.2 µM [rising, single point] under setting [1].

For the compound `CCCCNC(=O)CN1CCN(c2ncc(NC(=O)c3ccc(Cl)cc3)cc2C(=O)O)CC1`, the concentration at half-maximal activity (AC50) under setting [1] was 20 µM [falling, single point]. With `Nc1ccc2nc(Cc3ccccc3)[nH]c2c1`, the half-maximal activity concentration (AC50) under setting [2] was 14.1 µM [falling, single point]. With `COc1ccc(N(CC(=O)NCCSc2ccccc2)S(C)(=O)=O)cc1`, the AC50 under setting [2] is 0.00794 µM [falling, full curve, poor fit] and the AC50 under setting [1] was 3.55 µM [falling, partial curve, poor fit]. As for `O=C(Nc1sc2c(c1C(=O)O)CCCCC2)c1cccs1`, the half-maximal activity concentration (AC50) under setting [1] is 35.5 µM [rising, single point].

With `CCCOc1ccc(CCc2n[nH]c(=S)n2Cc2ccccc2)cc1`, the concentration at half-maximal activity (AC50) under setting [1] was 17.8 µM [rising, single point].

The term AC50 denotes the midpoint of the concentration-response curve, whichever way the signal moves.
